Experimental data as given in PMC8384837.
Substitutions are numbered along the chain they refer to. The list shows a part of the results. For some of these results: At the low end of the ranking, values are background and their order means little.

Experiments:
Conditions in all cases: yeast three-hybrid, YBZ-1, SC-Leu-His + 0.5 mM 3-AT, 4 days
[1] = biological target: T1, PUM1 PUF domain R7-RQL S1079R + N1080Q + E1083L (Homo sapiens) (UniProt Q14671)
T1 sequence: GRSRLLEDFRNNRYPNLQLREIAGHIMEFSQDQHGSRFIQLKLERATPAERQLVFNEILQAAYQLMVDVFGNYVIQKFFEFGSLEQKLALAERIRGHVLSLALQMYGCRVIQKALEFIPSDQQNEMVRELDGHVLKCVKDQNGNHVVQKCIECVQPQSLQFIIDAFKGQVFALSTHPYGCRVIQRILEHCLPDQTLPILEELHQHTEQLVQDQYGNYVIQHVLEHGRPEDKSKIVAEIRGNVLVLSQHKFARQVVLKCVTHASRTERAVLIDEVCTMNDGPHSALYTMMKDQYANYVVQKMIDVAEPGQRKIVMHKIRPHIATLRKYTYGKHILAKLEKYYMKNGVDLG

[2] = biological target: T2, PUM1 PUF domain R7-RSW S1079R + N1080S + E1083W (Homo sapiens) (UniProt Q14671)
T2 sequence: T1 sequence with Q253S, L256W

[3] = biological target: T3, PUM1 PUF domain R7-RTC S1079R + N1080T + E1083C (Homo sapiens) (UniProt Q14671)
T3 sequence: T1 sequence with Q253T, L256C

[4] = biological target: T4, PUM1 PUF domain R7-RTL S1079R + N1080T + E1083L (Homo sapiens) (UniProt Q14671)
T4 sequence: T1 sequence with Q253T

[5] = biological target: T5, PUM1 PUF domain R7-RVC S1079R + N1080V + E1083C (Homo sapiens) (UniProt Q14671)
T5 sequence: T1 sequence with Q253V, L256C

[6] = biological target: T6, PUM1 PUF domain R7-RVI S1079R + N1080V + E1083I (Homo sapiens) (UniProt Q14671)
T6 sequence: T1 sequence with Q253V, L256I

[7] = biological target: T7, PUM1 PUF domain R7-RVL S1079R + N1080V + E1083L (Homo sapiens) (UniProt Q14671)
T7 sequence: T1 sequence with Q253V

[8] = biological target: T8, PUM1 PUF domain R7-RVM S1079R + N1080V + E1083M (Homo sapiens) (UniProt Q14671)
T8 sequence: T1 sequence with Q253V, L256M

[9] = biological target: T9, PUM1 PUF domain R7-RVS S1079R + N1080V + E1083S (Homo sapiens) (UniProt Q14671)
T9 sequence: T1 sequence with Q253V, L256S

[10] = biological target: T10, PUM1 PUF domain R7-RVT S1079R + N1080V + E1083T (Homo sapiens) (UniProt Q14671)
T10 sequence: T1 sequence with Q253V, L256T

[11] = biological target: T11, PUM1 PUF domain R7-RVV S1079R + N1080V + E1083V (Homo sapiens) (UniProt Q14671)
T11 sequence: T1 sequence with Q253V, L256V

[12] = biological target: T12, PUM1 PUF domain R7-SRP N1080R + E1083P (Homo sapiens) (UniProt Q14671)
T12 sequence: T1 sequence with R252S, Q253R, L256P

[13] = biological target: T13, PUM1 PUF domain R7-TIV S1079T + N1080I + E1083V (UniProt Q14671)
T13 sequence: T1 sequence with R252T, Q253I, L256V

[14] = biological target: T14, PUM1 PUF domain R7-TMG S1079T + N1080M + E1083G (Homo sapiens) (UniProt Q14671)
T14 sequence: T1 sequence with R252T, Q253M, L256G

[15] = biological target: T15, PUM1 PUF domain R7-TPG S1079T + N1080P + E1083G (Homo sapiens) (UniProt Q14671)
T15 sequence: T1 sequence with R252T, Q253P, L256G

[16] = biological target: T16, PUM1 PUF domain R7-TSV S1079T + N1080S + E1083V (UniProt Q14671)
T16 sequence: T1 sequence with R252T, Q253S, L256V

[17] = biological target: T17, PUM1 PUF domain R7-TTG S1079T + N1080T + E1083G (UniProt Q14671)
T17 sequence: T1 sequence with R252T, Q253T, L256G

[18] = biological target: T18, PUM1 PUF domain R7-TVA S1079T + N1080V + E1083A (UniProt Q14671)
T18 sequence: T1 sequence with R252T, Q253V, L256A

[19] = biological target: T19, PUM1 PUF domain R7-TVG S1079T + N1080V + E1083G (UniProt Q14671)
T19 sequence: T1 sequence with R252T, Q253V, L256G

[20] = biological target: T20, PUM1 PUF domain R7-TVR S1079T + N1080V + E1083R (Homo sapiens) (UniProt Q14671)
T20 sequence: T1 sequence with R252T, Q253V, L256R

[21] = biological target: T21, PUM1 PUF domain R7-VER S1079V + N1080E + E1083R (UniProt Q14671)
T21 sequence: T1 sequence with R252V, Q253E, L256R

[22] = biological target: T22, PUM1 PUF domain R7-VRR S1079V + N1080R + E1083R (Homo sapiens) (UniProt Q14671)
T22 sequence: T1 sequence with R252V, Q253R, L256R

[23] = biological target: T23, PUM1 PUF domain R7-VSR S1079V + N1080S + E1083R (Homo sapiens) (UniProt Q14671)
T23 sequence: T1 sequence with R252V, Q253S, L256R

[24] = biological target: T24, PUM1 PUF domain R7-VTR S1079V + N1080T + E1083R (UniProt Q14671)
T24 sequence: T1 sequence with R252V, Q253T, L256R

[25] = biological target: T25, PUM1 PUF domain R7-VVK S1079V + N1080V + E1083K (UniProt Q14671)
T25 sequence: T1 sequence with R252V, Q253V, L256K

GGCUAGAACUAGUGGAUCCCCCGGCGCCCGGCGGCUCGAGCCCGGGUAAGUCUAAAUAGUCUGCAUGCCGCCGGGCGCCAUGCCUGCAGGUCGACUCUAGAAAACAUG
binding signal (log2 enrichment (interaction score)) [1]: -1.71
binding signal (log2 enrichment (interaction score)) [2]: -1.24
binding signal (log2 enrichment (interaction score)) [3]: -0.59
binding signal (log2 enrichment (interaction score)) [4]: -0.25
binding signal (log2 enrichment (interaction score)) [5]: 0.03
binding signal (log2 enrichment (interaction score)) [6]: -0.43
binding signal (log2 enrichment (interaction score)) [7]: -0.18
binding signal (log2 enrichment (interaction score)) [8]: -0.48
binding signal (log2 enrichment (interaction score)) [9]: -0.28
binding signal (log2 enrichment (interaction score)) [10]: 0.15
binding signal (log2 enrichment (interaction score)) [11]: -0.71
binding signal (log2 enrichment (interaction score)) [12]: -2.68
binding signal (log2 enrichment (interaction score)) [13]: < -7.98
binding signal (log2 enrichment (interaction score)) [14]: < -6.68
binding signal (log2 enrichment (interaction score)) [15]: -5.45
binding signal (log2 enrichment (interaction score)) [16]: < -8.59
binding signal (log2 enrichment (interaction score)) [17]: < -8.74
binding signal (log2 enrichment (interaction score)) [18]: < -7.66
binding signal (log2 enrichment (interaction score)) [19]: < -7.26
binding signal (log2 enrichment (interaction score)) [20]: -4.9
binding signal (log2 enrichment (interaction score)) [21]: < -8.21
binding signal (log2 enrichment (interaction score)) [22]: -0.04
binding signal (log2 enrichment (interaction score)) [23]: -5.62
binding signal (log2 enrichment (interaction score)) [24]: -6.53
binding signal (log2 enrichment (interaction score)) [25]: < -9.55
